The target in test [1] is T1, phospholamban (PLN) (mouse (endogenous in mouse heart)), P61014.
T1 chain: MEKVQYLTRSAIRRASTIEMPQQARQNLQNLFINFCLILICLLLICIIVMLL
Briefly: affinity purification with mass spectrometry; IP-MS: unfixed, snap-frozen mouse hearts, RIPA lysate; 1 mg soluble protein with 2 μg PLN antibody overnight at 4 °C, protein A/G beads, on-bead trypsin digestion, DIA MS; mock IP without primary antibody as control. The conditions noted are these: remark: other sources report otherwise.

Test [2] deals with T1, phospholamban (PLN) (mouse (endogenous …)). The test can be described thus: affinity purification with mass spectrometry; xIP-MS: mouse hearts fixed (cross-linked) overnight in 3 % glyoxal, RIPA lysate; 1 mg soluble protein with 2 μg PLN antibody overnight at 4 °C, protein A/G beads, on-bead trypsin digestion, DIA MS; mock IP without primary antibody as control. The conditions noted are these: remark: other sources report otherwise.

These are yes or no findings as the source states them, for the method shown. In cells and extracts the contact can be indirect. A yes stands for co-enrichment or nearness to the bait. Other partners may have been found. A no says only that the protein was not detected with the bait.

The values that follow come from publication PMC12145851.

B1: HS-associated protein X-1 (HAX-1), O35387 1-280 (protein)
chain: MSVFDLFRGFFGFPGPRSHRDPFFGGMTRDDDDDDDDDDEAEEDRGAWGRESYAFDGSQPPEEFGFSFSPRGGMRFHGNFGFDDLVRDFNSIFSEMGAWTLPSHSPELPGPESETPGERLREGQTLRDSMLKYPDSHQPRIFEGVLESHAKPESPKPAPDWGSQGPFHRLDDTWPVSPHSRAKEDKDLDSQVSQEGLGPLLQPQPKSYFKSISVTKITKPDGTVEERRTVVDSEGRRETTVTHQEAHDSSRSDPDSQRSSALDDPFSILDLLLGRWFRSR
B1: the binding result in test [1] and in test [2] was “no binding” in each case.

B2: von Hippel-Lindau, P40338 1-181 (protein)
chain: MPRKAASPEEAAGEPGPEEMEAGRPRPVLRSVNSREPSQVIFCNRSPRVVLPLWLNFDGEPQPYPILPPGTGRRIHSYRGHLWLFRDAGTHDGLLVNQTELFVPSLNVDGQPIFANITLPVYTLKERCLQVVRSLVKPENYRRLDIVRSLYEDLEDYPSVRKDIQRLSQEHLESQHLEEEP
Consider B2, for which the binding entry in test [1] and in test [2] was “no binding” each time.
